The other results are listed elsewhere or left out.
Key:
Assay in all cases: log2 fold change, soluble protein after heating vs DMSO (PISA); higher = thermal stabilisation; K562 cells, 10 uM, 30 min; active = over 0.2 and 3.5 SD of the protein, either way, in both replicates (recomputed)
[1] = compound: Cc1cn(-c2cc(NC(=O)c3ccc(C)c(Nc4nccc(-c5cccnc5)n4)c3)cc(C(F)(F)F)c2)cn1 [nilotinib]
Method in brief: (§1)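 Quantification of soluble protein used TMTpro 16plex LC-MS/MS, with channel sums equalised. Samples were the supernatant after 21,000xg for 90 min of pooled aliquots from K562 cells (2×10^6 cells/mL) treated with 10 μM compound for 30 min, heated for 3 min over 48°C-58°C, and extracted in PBS with 0.5% NP-40 at 4°C. Values, from duplicates, describe thermal stability against control samples on a log2 fold-change scale.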

Chains of the proteins cited; added tags and fusions are not shown. Lines headed by an entry give the natural chain unless they say otherwise; changes in a name come on top.
UniProt Q9H4L5: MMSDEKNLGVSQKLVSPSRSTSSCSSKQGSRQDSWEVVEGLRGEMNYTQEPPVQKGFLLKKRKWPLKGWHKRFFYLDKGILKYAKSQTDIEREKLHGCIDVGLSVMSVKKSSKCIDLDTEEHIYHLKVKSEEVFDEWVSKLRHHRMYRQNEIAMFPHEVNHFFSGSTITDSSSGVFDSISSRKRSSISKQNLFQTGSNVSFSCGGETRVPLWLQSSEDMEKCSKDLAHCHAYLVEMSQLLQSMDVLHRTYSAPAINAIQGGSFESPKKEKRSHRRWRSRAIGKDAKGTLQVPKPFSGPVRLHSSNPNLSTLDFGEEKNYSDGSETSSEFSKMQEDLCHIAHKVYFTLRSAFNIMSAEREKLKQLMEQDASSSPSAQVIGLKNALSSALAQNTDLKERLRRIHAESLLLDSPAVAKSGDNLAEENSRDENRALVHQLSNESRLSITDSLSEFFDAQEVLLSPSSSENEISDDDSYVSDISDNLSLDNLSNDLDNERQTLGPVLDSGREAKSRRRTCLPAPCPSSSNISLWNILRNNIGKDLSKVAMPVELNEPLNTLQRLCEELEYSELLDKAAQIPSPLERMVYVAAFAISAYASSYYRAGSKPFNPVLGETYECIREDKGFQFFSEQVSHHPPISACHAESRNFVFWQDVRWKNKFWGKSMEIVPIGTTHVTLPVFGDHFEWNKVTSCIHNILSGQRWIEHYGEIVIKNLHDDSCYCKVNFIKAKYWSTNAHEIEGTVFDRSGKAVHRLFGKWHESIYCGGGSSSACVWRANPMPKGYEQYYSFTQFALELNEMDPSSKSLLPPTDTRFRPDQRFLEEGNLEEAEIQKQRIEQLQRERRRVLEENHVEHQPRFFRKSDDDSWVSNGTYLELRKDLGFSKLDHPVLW
UniProt Q8WV22: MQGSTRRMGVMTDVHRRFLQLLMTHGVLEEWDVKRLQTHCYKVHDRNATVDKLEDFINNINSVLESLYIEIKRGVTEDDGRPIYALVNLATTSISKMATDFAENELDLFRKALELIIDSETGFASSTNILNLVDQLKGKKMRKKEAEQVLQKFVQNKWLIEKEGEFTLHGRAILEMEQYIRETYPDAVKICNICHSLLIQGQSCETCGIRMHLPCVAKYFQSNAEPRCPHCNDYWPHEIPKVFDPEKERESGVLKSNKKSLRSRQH
UniProt Q9UBU9: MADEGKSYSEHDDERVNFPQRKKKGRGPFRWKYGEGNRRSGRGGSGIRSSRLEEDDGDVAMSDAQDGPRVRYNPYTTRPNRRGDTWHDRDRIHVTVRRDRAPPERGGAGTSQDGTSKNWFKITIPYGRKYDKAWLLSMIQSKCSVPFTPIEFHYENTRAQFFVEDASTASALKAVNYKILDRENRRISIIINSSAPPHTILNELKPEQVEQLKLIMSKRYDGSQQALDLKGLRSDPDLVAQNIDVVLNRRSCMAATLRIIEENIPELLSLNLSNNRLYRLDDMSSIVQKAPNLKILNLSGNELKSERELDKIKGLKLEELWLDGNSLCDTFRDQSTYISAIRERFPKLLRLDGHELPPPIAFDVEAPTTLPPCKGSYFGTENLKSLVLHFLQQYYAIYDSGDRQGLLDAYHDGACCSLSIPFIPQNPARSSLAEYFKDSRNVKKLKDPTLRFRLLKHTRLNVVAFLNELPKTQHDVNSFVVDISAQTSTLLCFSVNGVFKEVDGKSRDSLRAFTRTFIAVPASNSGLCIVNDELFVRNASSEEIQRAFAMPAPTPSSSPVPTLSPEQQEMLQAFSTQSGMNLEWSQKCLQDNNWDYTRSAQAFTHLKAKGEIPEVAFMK
UniProt Q6PK18: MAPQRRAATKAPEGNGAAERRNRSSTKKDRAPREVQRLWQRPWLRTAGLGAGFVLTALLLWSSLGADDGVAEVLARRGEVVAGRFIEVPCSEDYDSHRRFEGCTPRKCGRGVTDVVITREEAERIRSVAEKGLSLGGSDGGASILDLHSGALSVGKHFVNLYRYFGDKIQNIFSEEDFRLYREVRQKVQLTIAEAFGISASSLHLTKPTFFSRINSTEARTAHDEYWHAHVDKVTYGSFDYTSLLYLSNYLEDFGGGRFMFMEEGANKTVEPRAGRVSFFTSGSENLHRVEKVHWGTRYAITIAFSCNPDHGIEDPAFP
UniProt O95848: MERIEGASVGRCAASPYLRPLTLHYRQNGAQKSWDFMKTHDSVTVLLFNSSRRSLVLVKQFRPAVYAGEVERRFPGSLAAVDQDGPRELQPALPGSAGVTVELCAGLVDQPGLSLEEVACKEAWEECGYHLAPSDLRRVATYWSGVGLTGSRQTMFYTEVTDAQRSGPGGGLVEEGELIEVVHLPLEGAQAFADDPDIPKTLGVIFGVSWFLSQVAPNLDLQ
UniProt Q99935: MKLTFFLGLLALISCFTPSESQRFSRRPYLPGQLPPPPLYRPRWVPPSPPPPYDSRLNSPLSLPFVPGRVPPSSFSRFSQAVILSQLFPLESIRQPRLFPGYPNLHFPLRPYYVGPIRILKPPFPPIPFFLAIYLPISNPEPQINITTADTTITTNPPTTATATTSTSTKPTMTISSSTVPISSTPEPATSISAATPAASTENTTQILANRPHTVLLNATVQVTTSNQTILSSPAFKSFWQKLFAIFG
UniProt Q8N138: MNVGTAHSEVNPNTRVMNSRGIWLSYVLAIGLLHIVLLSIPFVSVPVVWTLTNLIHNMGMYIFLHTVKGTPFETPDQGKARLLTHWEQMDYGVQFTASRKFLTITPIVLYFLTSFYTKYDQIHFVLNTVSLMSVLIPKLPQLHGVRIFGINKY
UniProt Q9ULJ1: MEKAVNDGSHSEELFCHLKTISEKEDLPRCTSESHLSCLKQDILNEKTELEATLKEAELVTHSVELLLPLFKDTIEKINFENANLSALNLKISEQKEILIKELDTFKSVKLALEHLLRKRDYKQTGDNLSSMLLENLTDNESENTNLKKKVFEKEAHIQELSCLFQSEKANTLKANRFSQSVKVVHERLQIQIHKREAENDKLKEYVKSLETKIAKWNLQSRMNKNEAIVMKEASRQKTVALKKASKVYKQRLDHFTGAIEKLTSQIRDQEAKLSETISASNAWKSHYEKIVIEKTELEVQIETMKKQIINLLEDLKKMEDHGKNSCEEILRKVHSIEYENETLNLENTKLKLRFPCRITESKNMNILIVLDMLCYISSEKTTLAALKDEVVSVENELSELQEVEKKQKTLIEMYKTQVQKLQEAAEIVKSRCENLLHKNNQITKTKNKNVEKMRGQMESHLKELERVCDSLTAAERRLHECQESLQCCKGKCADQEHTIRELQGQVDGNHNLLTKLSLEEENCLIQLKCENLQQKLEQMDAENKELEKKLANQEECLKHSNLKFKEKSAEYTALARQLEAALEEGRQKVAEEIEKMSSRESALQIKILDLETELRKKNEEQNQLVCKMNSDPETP
UniProt Q8WV74: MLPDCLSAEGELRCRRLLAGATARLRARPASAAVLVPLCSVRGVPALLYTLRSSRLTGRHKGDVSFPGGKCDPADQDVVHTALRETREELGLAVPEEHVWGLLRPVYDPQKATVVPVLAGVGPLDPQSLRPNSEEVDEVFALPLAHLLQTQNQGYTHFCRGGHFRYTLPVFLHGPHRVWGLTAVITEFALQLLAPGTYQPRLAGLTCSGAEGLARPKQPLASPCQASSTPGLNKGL
UniProt Q9H6K4: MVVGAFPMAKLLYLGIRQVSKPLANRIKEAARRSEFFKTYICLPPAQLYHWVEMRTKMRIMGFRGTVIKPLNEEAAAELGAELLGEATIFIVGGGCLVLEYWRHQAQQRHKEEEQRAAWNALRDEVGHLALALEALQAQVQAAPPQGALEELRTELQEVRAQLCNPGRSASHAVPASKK
UniProt Q9BZF3: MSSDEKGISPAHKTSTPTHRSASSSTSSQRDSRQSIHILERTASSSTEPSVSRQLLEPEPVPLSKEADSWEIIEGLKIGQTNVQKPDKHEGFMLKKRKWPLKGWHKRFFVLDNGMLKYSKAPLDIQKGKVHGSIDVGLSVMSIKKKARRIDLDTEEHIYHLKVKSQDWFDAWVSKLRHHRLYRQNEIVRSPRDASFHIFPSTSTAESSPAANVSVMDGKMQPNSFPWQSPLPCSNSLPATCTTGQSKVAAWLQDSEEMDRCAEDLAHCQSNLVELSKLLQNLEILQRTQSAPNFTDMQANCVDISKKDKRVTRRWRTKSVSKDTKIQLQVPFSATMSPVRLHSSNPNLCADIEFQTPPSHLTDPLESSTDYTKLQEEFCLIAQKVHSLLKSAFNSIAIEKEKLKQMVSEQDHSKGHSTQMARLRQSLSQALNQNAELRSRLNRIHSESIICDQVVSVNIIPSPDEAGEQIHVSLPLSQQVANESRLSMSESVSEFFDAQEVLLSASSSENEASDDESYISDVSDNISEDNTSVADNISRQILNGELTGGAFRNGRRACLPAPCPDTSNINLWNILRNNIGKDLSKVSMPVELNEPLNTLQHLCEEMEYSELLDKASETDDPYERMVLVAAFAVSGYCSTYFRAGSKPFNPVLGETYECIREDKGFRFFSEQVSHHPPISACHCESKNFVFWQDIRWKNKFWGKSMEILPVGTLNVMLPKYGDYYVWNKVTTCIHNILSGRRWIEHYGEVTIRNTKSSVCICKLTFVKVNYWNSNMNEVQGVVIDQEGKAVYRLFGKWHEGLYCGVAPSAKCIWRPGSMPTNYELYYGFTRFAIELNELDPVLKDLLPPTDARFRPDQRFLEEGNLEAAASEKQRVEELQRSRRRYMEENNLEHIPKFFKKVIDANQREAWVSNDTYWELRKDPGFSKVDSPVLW
UniProt Q8IVL6: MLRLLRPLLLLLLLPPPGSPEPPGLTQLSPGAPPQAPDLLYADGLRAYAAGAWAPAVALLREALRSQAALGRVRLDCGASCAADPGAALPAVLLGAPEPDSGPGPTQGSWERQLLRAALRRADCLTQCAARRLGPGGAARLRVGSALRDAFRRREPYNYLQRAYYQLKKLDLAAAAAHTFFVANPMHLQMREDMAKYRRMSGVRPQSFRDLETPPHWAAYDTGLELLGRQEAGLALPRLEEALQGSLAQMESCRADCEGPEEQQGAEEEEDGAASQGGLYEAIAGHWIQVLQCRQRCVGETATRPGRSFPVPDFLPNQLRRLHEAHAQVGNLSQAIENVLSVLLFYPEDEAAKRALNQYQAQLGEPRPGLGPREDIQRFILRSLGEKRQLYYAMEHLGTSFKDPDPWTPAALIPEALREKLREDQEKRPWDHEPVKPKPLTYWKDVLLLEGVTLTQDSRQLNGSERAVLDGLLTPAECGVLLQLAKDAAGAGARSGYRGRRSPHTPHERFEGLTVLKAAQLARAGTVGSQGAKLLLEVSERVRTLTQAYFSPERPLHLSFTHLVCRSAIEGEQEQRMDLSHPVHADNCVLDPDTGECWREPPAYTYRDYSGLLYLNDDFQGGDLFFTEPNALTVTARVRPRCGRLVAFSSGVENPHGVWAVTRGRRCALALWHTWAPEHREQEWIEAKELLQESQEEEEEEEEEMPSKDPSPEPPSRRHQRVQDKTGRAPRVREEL
UniProt Q5BKU9: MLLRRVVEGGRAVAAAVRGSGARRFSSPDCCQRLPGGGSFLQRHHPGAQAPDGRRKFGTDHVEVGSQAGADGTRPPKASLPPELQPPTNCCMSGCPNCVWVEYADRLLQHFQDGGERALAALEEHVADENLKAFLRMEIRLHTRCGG
UniProt Q8N573: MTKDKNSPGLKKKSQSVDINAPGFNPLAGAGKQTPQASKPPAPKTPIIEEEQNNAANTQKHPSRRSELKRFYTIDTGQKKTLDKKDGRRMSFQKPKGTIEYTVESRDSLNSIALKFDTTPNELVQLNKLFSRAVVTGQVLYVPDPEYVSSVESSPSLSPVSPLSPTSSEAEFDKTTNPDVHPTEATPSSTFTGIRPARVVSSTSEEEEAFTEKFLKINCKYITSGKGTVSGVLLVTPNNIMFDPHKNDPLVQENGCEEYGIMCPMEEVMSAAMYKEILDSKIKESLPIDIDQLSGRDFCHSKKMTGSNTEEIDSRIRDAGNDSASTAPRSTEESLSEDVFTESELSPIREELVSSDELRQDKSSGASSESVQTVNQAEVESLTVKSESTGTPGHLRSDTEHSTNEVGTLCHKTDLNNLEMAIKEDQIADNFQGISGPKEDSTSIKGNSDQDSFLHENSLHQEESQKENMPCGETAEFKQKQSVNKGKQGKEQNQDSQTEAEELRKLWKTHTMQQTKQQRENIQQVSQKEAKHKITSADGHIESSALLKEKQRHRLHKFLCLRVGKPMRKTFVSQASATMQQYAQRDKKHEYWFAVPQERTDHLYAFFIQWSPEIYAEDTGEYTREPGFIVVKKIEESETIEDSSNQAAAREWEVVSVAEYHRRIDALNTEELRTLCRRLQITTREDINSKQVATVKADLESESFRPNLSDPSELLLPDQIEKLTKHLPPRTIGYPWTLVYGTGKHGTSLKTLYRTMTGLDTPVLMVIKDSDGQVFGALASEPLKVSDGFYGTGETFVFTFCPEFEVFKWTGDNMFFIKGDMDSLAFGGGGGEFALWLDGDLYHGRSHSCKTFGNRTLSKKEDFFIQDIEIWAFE

[2] = compound: Cc1nc(Nc2n[nH]c3c2CN(C(=O)N[C@H](CN(C)C)c2ccccc2)C3(C)C)c2sccc2n1
Method in brief: as §1

[3] = compound: Cc1nc(Nc2ncc(C(=O)Nc3c(C)cccc3Cl)s2)cc(N2CCN(CCO)CC2)n1 [dasatinib]
Method in brief: as §1

[4] = compound: Cc1ncc(-c2ccnc(Nc3ccc(S(C)(=O)=O)cc3)n2)n1C(C)C
Method in brief: as §1

[5] = compound: Cn1cc(-c2ccc3c(c2)CCN3C(=O)Cc2cccc(C(F)(F)F)c2)c2c(N)ncnc21
Method in brief: as §1

[6] = compound: Cn1cc(-c2ccc3nnc(C(F)(F)c4ccc5ncccc5c4)n3n2)cn1
Method in brief: as §1

[7] = compound: Cn1cncc1[C@@](N)(c1ccc(Cl)cc1)c1ccc2c(c1)c(-c1cccc(Cl)c1)cc(=O)n2C [tipifarnib]
Method in brief: as §1

[8] = compound: NC(=O)Nc1cc(-c2cccc(F)c2)sc1C(=O)N[C@H]1CCCNC1
Method in brief: as §1

[9] = compound: NC(=O)c1cnc(N[C@@H]2CCCC[C@@H]2N)nc1Nc1cccc(-n2nccn2)c1
Method in brief: as §1

[10] = compound: NCC(=O)Nc1ccc(-n2nc(C(F)(F)F)cc2-c2ccc3c(ccc4ccccc43)c2)cc1
Method in brief: as §1

[11] = compound: Nc1ccccc1NC(=O)c1ccc(CNC(=O)OCc2cccnc2)cc1 [entinostat]
Method in brief: as §1

[12] = compound: O=C(CCCCCCNC(=O)c1cnc(N(c2ccccc2)c2ccccc2Cl)nc1)NO [citarinostat]
Method in brief: as §1

[13] = compound: O=C1NC(=O)C(c2cnc3ccccn23)=C1c1cn2c3c(cc(F)cc13)CN(C(=O)N1CCCCC1)CC2
Method in brief: as §1

[14] = compound: c1cc(OCCN2CCCCC2)cc(-c2n[nH]c3ccc(-c4nnc[nH]4)cc23)c1
Method in brief: as §1

[15] = compound: FC(F)(F)c1ccc(/C=C/c2nc(COc3ccc(CCCCn4ccnn4)cc3)co2)cc1 [mubritinib]
Method in brief: as §1

[16] = compound: NC1(c2ccc(-c3nc4ccn5c(=O)[nH]nc5c4cc3-c3ccccc3)cc2)CCC1
Method in brief: as §1

[17] = compound: O=C(O)c1ccc2c(c1)nc(Nc1cccc(Cl)c1)c1ccncc12 [silmitasertib]
Method in brief: as §1

[18] = compound: Cc1ccc(NC(=O)c2ccc(CN3CC[C@H](N(C)C)C3)c(C(F)(F)F)c2)cc1Nc1nccc(-c2cncnc2)n1 [bafetinib]
Method in brief: as §1

[19] = compound: Cc1cccc(CC(=O)N2CCc3c2ccc(-c2cn(C)c4ncnc(N)c24)c3F)n1
Method in brief: as §1

[20] = compound: O=C(CCCCCCC(=O)Nc1ccccc1)NO [vorinostat]
Method in brief: as §1

Measured: log2 fold change

OSBPL3 (UniProt Q9H4L5)
inactive: [1] 0.316 | [2] 0.114 | [3] 0.447 | [4] -0.213 | [5] -0.081 | [6] -0.173 | [7] -0.17 | [8] -0.079 | [9] -0.43 | [10] 0.106 | [11] 0.077 | [12] -0.077 | [13] 0.307 | [14] -0.072

NSMCE1 (UniProt Q8WV22)
inactive: [1] 0.478 | [2] 0.305 | [3] -0.001 | [4] -0.15 | [5] 0.023 | [6] -0.032 | [7] 0.047 | [15] -0.123 | [8] 0.091 | [9] 0.214 | [16] 0.058 | [10] 0.022 | [11] -0.052 | [12] -0.058 | [17] -0.068 | [13] -0.032 | [14] -0.048

ODC1 (UniProt P11926)
inactive: [1] -0.249 | [2] -0.132 | [3] -0.022 | [4] -0.346 | [7] 0.023 | [9] 0.012

NUDT22 (UniProt Q9BRQ3)
inactive: [18] 0.283 | [3] 0.18 | [15] 0.703 | [9] -0.068 | [16] 0.054 | [10] -0.07 | [17] 0.232

NXF1 (UniProt Q9UBU9)
inactive: [19] -0.138 | [1] -0.308 | [2] -0.254 | [4] -0.311 | [6] -0.13 | [7] 0.147 | [9] -0.041 | [20] 0.054

NUDT17 (UniProt P0C025)
inactive: [18] -0.131 | [1] 0.017 | [2] 0.071 | [4] -0.011 | [5] 0.187 | [6] 0.041 | [15] -0.156 | [8] 0.168 | [9] 0.072 | [16] -0.004 | [10] 0.165 | [11] 0.198 | [17] 0.041 | [13] -0.217

OGFOD3 (UniProt Q6PK18)
inactive: [18] 0.122 | [1] 0.196 | [2] 0.027 | [4] -0.025 | [6] -0.001 | [7] -0.026 | [15] 0.006 | [16] -0.099 | [17] -0.12

NUDT6 (UniProt P53370)
active: [17] -0.517
inactive: [1] -0.1 | [2] 0.083 | [3] -0.005 | [4] 0.08 | [5] 0.426 | [6] 0.05 | [7] -0.022 | [15] -0.049 | [16] 0.149 | [10] 0.298 | [12] 0.164 | [13] -0.097 | [14] -0.385

ORAI1 (UniProt Q96D31)
inactive: [18] 0.133 | [1] 0.018 | [2] -0.086 | [4] 0.053 | [6] 0.004 | [7] 0.044 | [15] -0.251 | [16] 0.101 | [10] 0.202 | [12] 0.491 | [17] 0.11 | [13] -0.024 | [14] -0.2

PABPC1 (UniProt E5RJM8)
inactive: [7] 0.065 | [8] -0.152 | [11] -0.058

NUDT14 (UniProt O95848)
inactive: [7] -0.148

OPRPN (UniProt Q99935)
inactive: [15] 0.03 | [16] -0.189 | [17] -0.018

P4HB (UniProt H7BZ94)
inactive: [8] -0.145 | [11] 0.177

PABPC1 (UniProt H0YAR2)
inactive: [6] 0.061 | [15] 0.26 | [8] -0.07 | [16] 0.157 | [11] 0.051 | [17] 0.229

ORMDL3 (UniProt Q8N138)
inactive: [7] 0.032

ORMDL1 (UniProt Q9P0S3)
inactive: [15] -0.043 | [8] -0.091 | [16] -0.065 | [11] 0.039 | [12] 0.113 | [17] 0.076 | [13] -0.009 | [14] -0.023

OSGEPL1 (UniProt Q9H4B0)
inactive: [19] 0.123 | [3] 0 | [5] 0.13 | [7] -0.174 | [8] 0.042 | [9] 0.138 | [10] 0.215 | [11] 0.099 | [20] 0.095

ODF2L isoform 4 (UniProt Q9ULJ1)
inactive: [18] -0.07 | [1] -0.046 | [2] 0.063 | [4] -0.035 | [15] -0.212 | [16] 0.237 | [10] -0.065 | [12] -0.085 | [17] 0.08 | [14] 0.115

NUDT8 (UniProt Q8WV74)
inactive: [18] 0.094 | [1] 0.01 | [2] -0.054 | [3] -0.1 | [4] 0.06 | [5] 0.192 | [6] 0.029 | [7] -0.008 | [15] -0.032 | [8] 0.075 | [16] -0.033 | [10] 0.003 | [11] -0.236 | [12] 0.026 | [17] -0.119 | [14] 0.372

OPA3 isoform 2 (UniProt Q9H6K4)
inactive: [3] -0.043 | [5] -0.09 | [6] -0.097 | [15] 0.072 | [9] -0.013 | [16] -0.065 | [10] -0.039 | [17] -0.043

OAS3 (UniProt Q9Y6K5)
inactive: [18] 0.064 | [3] 0.082 | [6] -0.37 | [8] 0.033 | [11] 0.029

ORC6 (UniProt Q9Y5N6)
inactive: [1] -0.136 | [2] -0.006 | [4] 0.127 | [6] -0.071 | [7] 0.189 | [8] 0.06 | [11] 0.05 | [12] 0.062 | [13] 0.031 | [14] -0.135

ODF2 (UniProt Q5BJF6)
inactive: [19] 0.171 | [20] 0.28 | [13] 0.314

OSBPL6 isoform 5 (UniProt Q9BZF3)
inactive: [1] 1.04 | [2] -0.045 | [4] 0.013 | [6] -0.006 | [7] -0.09 | [15] 0.047 | [8] 0.202 | [9] 0.563 | [16] 0.15 | [11] -0.155 | [12] -0.237 | [17] 0.305 | [13] 0.271 | [14] -0.345

P3H3 (UniProt Q8IVL6)
inactive: [15] 0.063 | [16] -0.402 | [17] 0.172 | [13] 0.038

OXLD1 (UniProt Q5BKU9)
inactive: [1] 0.074 | [2] -0.055 | [4] -0.032 | [15] 0.083 | [16] -0.081 | [12] -0.036 | [17] -0.028 | [14] -0.169

ORC3 (UniProt Q9UBD5)
inactive: [9] 0.067 | [12] 0.032 | [14] -0.195

OSBPL2 (UniProt Q9H1P3)
inactive: [5] 0.37 | [7] -0.009 | [15] 0.465 | [16] -0.443 | [17] 0.148

Copied from the entries so far (2 entries):
OXLD1 (UniProt Q5BKU9)
inactive: [1] 0.074 | [2] -0.055 | [4] -0.032 | [15] 0.083 | [16] -0.081 | [12] -0.036 | [17] -0.028 | [14] -0.169

ORC3 (UniProt Q9UBD5)
inactive: [9] 0.067 | [12] 0.032 | [14] -0.195

Further records follow:

P2RY1 (UniProt P47900)
inactive: [19] -0.234 | [3] 0.025 | [7] 0.09 | [15] -0.204 | [9] 0.082 | [16] 0.191 | [20] -0.044 | [17] 0.145 | [13] 0.247

OXR1 isoform 2 (UniProt Q8N573)
inactive: [19] -0.009 | [1] -0.028 | [2] -0.002 | [3] 0 | [4] -0.094 | [5] 0.15 | [6] 0.099 | [7] -0.019 | [9] 0.054 | [10] -0.046 | [20] 0.01 | [12] 0.013 | [13] -0.096 | [14] -0.053
